{
  "source": "patent US6534313B1",
  "about": "“Genetically modified plants having modulated brassinosteroid signaling” (The Salk Institute for Biological Studies, priority 1999, dated 2003)",
  "experiment": "Quantitative analysis of endogenous brassinosteroids in rosettes by gas chromatography-selected ion analysis with internal standards",
  "set-up": "species or system Arabidopsis",
  "conditions": "for Brassinosteroid levels: rosettes, five weeks on soil, short day; for endogenous level in bas1-DphyB-4 compared with phyB-4: bas1-DphyB-4 versus phyB-4 plants",
  "data": [
    {"smiles": "CC(C)[C@H](C)[C@@H](O)[C@H](O)[C@@H](C)[C@H]1CC[C@H]2[C@@H]3CC[C@H]4C[C@H](O)[C@H](O)C[C@]4(C)[C@H]3CC[C@]12C", "note": "[6-deoxoCS, 6-deoxocastasterone]", "values": [
      {"measurement": "Brassinosteroid levels", "setting": "bas1-D phyB-4 plants", "value": 0.04, "unit": "ng/g fresh weight"},
      {"measurement": "endogenous level in bas1-DphyB-4 compared with phyB-4", "value": "greatly reduced"},
      {"measurement": "Brassinosteroid levels", "setting": "phyB-4 plants", "value": 0.79, "unit": "ng/g fresh weight"}
    ]},
    {"smiles": "CC(C)[C@H](C)[C@@H](O)[C@H](O)[C@@H](C)[C@H]1CC[C@H]2[C@@H]3CC[C@H]4C[C@@H](O)CC[C@]4(C)[C@H]3CC[C@]12C", "note": "[6-deoxoTE, 6-deoxoteasterone]", "values": [
      {"measurement": "Brassinosteroid levels", "setting": "bas1-D phyB-4 plants", "value": 0.26, "unit": "ng/g fresh weight"},
      {"measurement": "endogenous level in bas1-DphyB-4 compared with phyB-4", "value": "increased accumulation"},
      {"measurement": "Brassinosteroid levels", "setting": "phyB-4 plants", "value": 0.19, "unit": "ng/g fresh weight"}
    ]},
    {"smiles": "CC(C)[C@H](C)[C@@H](O)[C@H](O)[C@@H](C)[C@H]1CC[C@H]2[C@@H]3COC(=O)[C@H]4C[C@H](O)[C@H](O)C[C@]4(C)[C@H]3CC[C@]12C", "note": "[BL, brassinolide]", "values": [
      {"measurement": "endogenous level in bas1-DphyB-4 compared with phyB-4", "value": "not detected"},
      {"measurement": "Brassinosteroid levels", "setting": "phyB-4 plants", "value": 0.32, "unit": "ng/g fresh weight"}
    ]},
    {"smiles": "CC(C)[C@H](C)[C@@H](O)[C@H](O)[C@@H](C)[C@H]1CC[C@H]2[C@@H]3CC(=O)[C@H]4C[C@H](O)[C@H](O)C[C@]4(C)[C@H]3CC[C@]12C", "note": "[CS, castasterone]", "values": [
      {"measurement": "Brassinosteroid levels", "setting": "bas1-D phyB-4 plants", "value": 0.02, "unit": "ng/g fresh weight"},
      {"measurement": "endogenous level in bas1-DphyB-4 compared with phyB-4", "value": "greatly reduced"},
      {"measurement": "Brassinosteroid levels", "setting": "phyB-4 plants", "value": 0.13, "unit": "ng/g fresh weight"}
    ]}
  ]
}
